Results from PubChem BioAssay AID1117319 (Southern Research Institute, 2015).
In all, about 260,000 compounds went through this assay and about 1,500 (0.58%) were called active. This list was built around the results that the source calls inconclusive (neither active nor inactive); the mix of calls is not that of the screen.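 Rule for the calls: active = inhibition above a set limit at one or more doses, reproduced on every date tested; inconclusive = results disagree between test dates, or hit never tested in dose response; inactive = the rest.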

Protein sequences, listed by entry. Tags and fused reporters are not part of them. Lines headed by an entry give the natural chain unless they say otherwise; changes in a name come on top.
UniProt P69720: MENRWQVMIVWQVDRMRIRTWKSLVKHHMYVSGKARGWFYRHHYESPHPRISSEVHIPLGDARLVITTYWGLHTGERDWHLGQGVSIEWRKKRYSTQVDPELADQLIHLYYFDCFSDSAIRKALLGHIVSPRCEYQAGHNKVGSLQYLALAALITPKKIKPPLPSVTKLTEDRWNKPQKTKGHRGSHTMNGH
UniProt P69721: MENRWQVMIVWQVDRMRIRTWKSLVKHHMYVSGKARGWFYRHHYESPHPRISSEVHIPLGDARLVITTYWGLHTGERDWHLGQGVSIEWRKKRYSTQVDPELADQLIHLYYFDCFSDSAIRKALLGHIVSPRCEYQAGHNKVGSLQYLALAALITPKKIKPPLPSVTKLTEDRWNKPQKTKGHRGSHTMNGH
UniProt P69722: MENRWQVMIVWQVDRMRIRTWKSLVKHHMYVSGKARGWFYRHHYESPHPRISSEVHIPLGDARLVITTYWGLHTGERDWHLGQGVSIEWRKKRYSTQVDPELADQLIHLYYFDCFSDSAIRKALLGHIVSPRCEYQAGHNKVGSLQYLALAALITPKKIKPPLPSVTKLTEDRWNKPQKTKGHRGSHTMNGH
UniProt P69723: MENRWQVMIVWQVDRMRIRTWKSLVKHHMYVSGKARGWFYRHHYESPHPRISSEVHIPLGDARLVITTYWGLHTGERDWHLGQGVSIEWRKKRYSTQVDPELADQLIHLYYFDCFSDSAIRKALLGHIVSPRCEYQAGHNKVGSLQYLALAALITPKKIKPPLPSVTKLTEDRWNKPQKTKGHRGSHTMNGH
UniProt Q9HC16: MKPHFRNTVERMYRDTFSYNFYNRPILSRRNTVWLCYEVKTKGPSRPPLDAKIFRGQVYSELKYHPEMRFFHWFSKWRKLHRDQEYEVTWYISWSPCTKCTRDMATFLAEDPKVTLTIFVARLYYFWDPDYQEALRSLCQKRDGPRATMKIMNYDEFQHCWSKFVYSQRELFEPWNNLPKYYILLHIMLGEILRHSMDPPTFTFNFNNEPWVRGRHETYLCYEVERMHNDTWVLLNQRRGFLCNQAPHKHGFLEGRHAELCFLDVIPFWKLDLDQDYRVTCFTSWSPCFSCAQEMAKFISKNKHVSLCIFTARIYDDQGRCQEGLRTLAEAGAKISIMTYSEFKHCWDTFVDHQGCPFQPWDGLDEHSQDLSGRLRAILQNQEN

These compounds were tested against Virion infectivity factor (Human immunodeficiency virus type 1 group M subtype B (isolate BH10)) + Virion infectivity factor (Human immunodeficiency virus type 1 group M subtype B (isolate BRU/LAI)) + Virion infectivity factor (Human immunodeficiency virus type 1 group M subtype B (isolate PCV12)) + Virion infectivity factor (Human immunodeficiency virus type 1 group M subtype B (isolate HXB2)) + DNA dC->dU-editing enzyme APOBEC-3G (Homo sapiens) (UniProt P69720+P69721+P69722+P69723+Q9HC16) (assay: inhibitors of Vif binding to APOBEC3G peptide, primary screen, biochemical, TR-FRET, GST-Vif 1-94, biotin-A3G peptide, dose response retest (AID 1117319;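 note: Vif residues 1-94 fused to GST binding biotinylated APOBEC3G peptide 110-148; 0% = full assay without inhibitor and 100% = GST in place of GST-Vif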)). Settings: active compounds read high.

Row | Structure (SMILES) | inhibition
1 | CCCC(=O)Nc1nnc(SCC(=O)Nc2ccc3c(c2)OCO3)s1 | inconclusive: 36%
2 | N#C/C(=C\c1cccs1)c1nc2ccccc2[nH]1 | inconclusive: 46.1%
3 | O=C1C(Cl)=C(Nc2ccccc2)C(=O)c2ccccc21 | inactive: -1.3%
4 | CCN=c1scc(-c2cccs2)n1/N=C/c1cc(OC)ccc1O | inactive: 11.2%
5 | COc1ccc(/C=C2\S/C(=N/S(=O)(=O)c3cccs3)NC2=O)cc1 | inactive: 7.65%
6 | N=c1n(Cc2ccccc2)c2ccccc2n1CC(O)COc1ccccc1 (centres undefined) | inconclusive: 55.5%
7 | CC(C)OCCCN1CN(S(=O)(=O)c2ccccc2)c2nc3ccccc3nc21 | inconclusive: 51.4%
8 | Cc1ccc(S(=O)(=O)NC(=O)c2ccc(Br)o2)c(C)c1 | inconclusive: 37.1%
9 | NC(=O)Nn1c(CCC(=O)O)ccc1-c1ccc(Br)cc1 | inconclusive: 41.4%
10 | CC(Oc1ccc(NC(=O)c2ccco2)cc1)C(=O)N1c2ccccc2CC1C (centres undefined) | inconclusive: 45.3%
11 | COc1ccc(OCC(=O)NNC(=O)c2cccs2)cc1 | inconclusive: 34.6%
12 | O=C1NC(c2ccccc2Br)=N/C1=C\c1ccco1 | inconclusive: 46.1%
13 | O=C(CNC(=O)c1cccs1)NCC(=O)OCc1ccc(F)cc1 | inconclusive: 41.9%
14 | Cc1cc(C)n2nc(SCc3cc(=O)oc4cc(O)ccc34)nc2n1 | inconclusive: 45.5%
15 | Cn1c(=O)c2ccccc2n(Cc2ccccc2Cl)c1=O | inconclusive: 41%
16 | O=[N+]([O-])c1c(Nc2ccccn2)cc(Cl)c2nonc12 | inactive: 10.6%
17 | Cc1ccc(-c2cc(-c3ccccc3)c(C#N)c(N)n2)o1 | inconclusive: 59.8%
18 | CC1(OC(=O)CCc2ccccc2)C(=O)C=C2C=C(c3ccc(C#N)cc3)N(c3ccccc3)C=C2C1=O (centres undefined) | inconclusive: 33.4%
19 | CCOC(=O)C1=C(c2ccccc2)NC(=O)NC1c1ccc(N(C)C)cc1 (centres undefined) | inconclusive: 55.7%
20 | Cc1nnc(SCC(=O)N2N=C(c3ccc(Cl)cc3)CC2c2ccco2)[nH]c1=O (centres undefined) | inconclusive: 44.4%
21 | CCN(C(=O)c1cc2c(=O)[nH]c3ccc(C)cc3c2s1)c1ccccc1F | inconclusive: 45.9%
22 | Cc1ccc(Cn2ncc3c(N4CCN(CC#N)CC4)ncnc32)cc1 | inconclusive: 36.7%
23 | COc1cc(O)cc(/C=C/c2ccccc2)c1 | inactive: 6.25%

Row | Structure (SMILES) | inhibition
24 | N=C1C(c2ccccc2)=C(O)CN1c1cccc2ccccc12 | inconclusive: 37.3%
25 | N=c1n(Cc2ccccc2)c2ccccc2n1Cc1ccccc1 | inconclusive: 35.4%
26 | O=C(c1ccco1)N1CCN(C(c2ccccc2)c2nnnn2C2CCCC2)CC1 (centres undefined) | inconclusive: 45%
27 | Cc1ccc(C(C)n2cc(C(=O)NCc3cccnc3)nn2)cc1 (centres undefined) | inconclusive: 40.2%
28 | Cn1c(=O)c2ncn(CC(=O)N/N=C/c3ccco3)c2n(C)c1=O | inconclusive: 42.2%
29 | N#Cc1ccc(Oc2nc(Nc3ccc(F)cc3)nc(N3CCCC3)n2)cc1 | inconclusive: 48.2%
30 | Cc1ccc(/C=N\NC(=O)CC(=O)NCCc2ccccc2)cc1 | inconclusive: 54.2%
31 | COc1ccc(OCCOC(=O)c2ccc(-n3cnnn3)cc2)cc1 | inconclusive: 43.6%
32 | O=[N+]([O-])c1ccccc1C=NNc1ccccc1 | inactive: -8.57%
33 | CC(=O)Nc1sc2c(c1C(c1ccccc1)N1CCOCC1)CCCC2 (centres undefined) | inactive: 5.78%
34 | CCOc1ccccc1NS(=O)(=O)c1cccc2nsnc12 | inconclusive: 58.8%
35 | COc1ccccc1OCCC(=O)O | inconclusive: 47.3%
36 | COc1cc(C2C(C#N)=C(N)OC3=C2C(=O)CCC3)c([N+](=O)[O-])cc1OC (centres undefined) | inconclusive: 51.2%
37 | O=C(Nc1ccc(S(=O)(=O)N2CCCCC2)cc1)C1CCCN(C(=O)c2ccc(Cl)cc2)C1 (centres undefined) | inconclusive: 41.5%
38 | CC(NC(=O)Nc1ccc(F)cc1F)c1ccncc1 (centres undefined) | inconclusive: 35.8%
39 | N#CC1(Nc2ccc([N+](=O)[O-])cc2)CCCC1 | inactive: 10.3%
40 | Cc1cc(C)nc(NS(=O)(=O)c2ccc(NC(=S)NC(=O)c3cccnc3)cc2)n1 | inconclusive: 40.2%
41 | Cc1ccc(-c2cc(-c3ccccc3Cl)c(C#N)c(N)n2)o1 | inconclusive: 39.3%
42 | c1cn2cc(-c3ccc4c(c3)OCO4)nc2s1 | inconclusive: 46.1%
43 | O=c1[nH]c(CN2CCN(c3ccc(O)cc3)CC2)nc2scc(-c3ccc(Cl)cc3)c12 | inconclusive: 34.5%
44 | CCOc1ccc2nc(NC(=O)c3cccc(-c4cc5ccccc5oc4=O)c3)sc2c1 | inconclusive: 60.4%
45 | O=C(NC1CCCC1)C(c1ccsc1)N(C(=O)Cc1cccs1)c1ccc(F)cc1 (centres undefined) | inconclusive: 36.6%
46 | CC1(C)CC(=O)C2=C(C1)N(Cc1ccco1)C(=O)C2(O)C(F)(F)F (centres undefined) | inconclusive: 37.1%

Row | Structure (SMILES) | inhibition
47 | CC(=O)NC1=NN(C(C)=O)C(C)(c2ccc(Br)cc2)S1 (centres undefined) | inconclusive: 41%
48 | CN1CCc2cc3c(c4c2C1CC41CCC(=NO)CC1)OCO3 (centres undefined) | inconclusive: 40.8%
49 | COc1ccc(N(C)C(=O)CCC(=O)Nc2ccc3nc(N4CCOCC4)cc(C)c3c2)c(OC)c1 | inconclusive: 34.4%
50 | Cc1cc(N2CCCC2)ccc1/C=N/n1cnnc1 | inconclusive: 41.4%
51 | COC(=O)c1ccc(/C=C/C(=O)c2ccc(OC)c(OC)c2)cc1 | inconclusive: 55.8%
52 | CN1CCCC(OC(=O)COc2ccccc2)C1 (centres undefined) | inconclusive: 34.6%
53 | O=C(CCc1nnc(CCCCc2ccccc2)o1)N1CCN(CCO)CC1 | inconclusive: 58.1%
54 | C/C(CC(=O)Nc1ccc(N(C)C)cc1)=N\NC(=O)c1cnccn1 | inconclusive: 40%
55 | O=C(Nc1ccc([N+](=O)[O-])cc1)Nc1ccc(Cl)cc1F | inconclusive: 51.2%
56 | O=C(O)CSc1ncnc2sc(-c3ccccc3)cc12 | inconclusive: 36.5%
57 | COc1ccccc1N1CCN(C/C(O)=C(\C#N)c2nc(-c3ccccc3)cs2)CC1 | inconclusive: 60.3%
58 | CC(C)N1CCN(Cc2cccn2-c2ccccn2)CC1CCO (centres undefined) | inconclusive: 39.7%
59 | Cc1noc(C)c1CCC(=O)Nc1cc(C(=O)O)ccc1Cl | inactive: 4.29%
60 | CCCOc1ccc2oc(=O)c3c(c2c1)CCCN3C(=O)CN1CCN(C(=O)c2ccco2)CC1 | inconclusive: 36.1%
61 | O=C(O)CC/C(=N\Nc1ccc(S(=O)(=O)N2CCOCC2)cc1[N+](=O)[O-])c1cccs1 | inconclusive: 34.1%
62 | COc1cc(C2CC(=O)N3CN(Cc4ccco4)CSC3=C2C#N)ccc1OCc1ccccc1 (centres undefined) | inactive: 24.2%
63 | COc1cc(/C=C2/NC(=O)N(CC(=O)Nc3ccc(C)cc3)C2=O)ccc1Oc1ccc([N+](=O)[O-])cn1 | inconclusive: 59.5%
64 | CCn1ccnc1CN(C)Cc1nc(-c2ccc3c(c2)OCO3)no1 | inconclusive: 33.2%
65 | CCOc1ccc(NC(=O)CC2C(=O)N(c3ccccc3)C(=O)N2CCc2cccs2)cc1 (centres undefined) | inconclusive: 48.8%
66 | Cc1cccc(NC(=O)c2ccccc2O)c1C | inconclusive: 49.1%
67 | Cc1cc(C(F)(F)F)n2nc(-c3cnn(C)c3C(F)(F)F)cc2n1 | inconclusive: 37.5%
68 | CCCS(=O)(=O)NCCc1cc2cc(C)c(C)cc2[nH]c1=O | inconclusive: 45.1%
69 | CCOC(=O)N1CCN(C(=O)CSc2nc3c([nH]c4ccccc43)c(=O)n2C)CC1 | inconclusive: 39.8%

From compound 64 up to 69, as listed above:
Row | Structure (SMILES) | inhibition
64 | CCn1ccnc1CN(C)Cc1nc(-c2ccc3c(c2)OCO3)no1 | inconclusive: 33.2%
65 | CCOc1ccc(NC(=O)CC2C(=O)N(c3ccccc3)C(=O)N2CCc2cccs2)cc1 (centres undefined) | inconclusive: 48.8%
66 | Cc1cccc(NC(=O)c2ccccc2O)c1C | inconclusive: 49.1%
67 | Cc1cc(C(F)(F)F)n2nc(-c3cnn(C)c3C(F)(F)F)cc2n1 | inconclusive: 37.5%
68 | CCCS(=O)(=O)NCCc1cc2cc(C)c(C)cc2[nH]c1=O | inconclusive: 45.1%
69 | CCOC(=O)N1CCN(C(=O)CSc2nc3c([nH]c4ccccc43)c(=O)n2C)CC1 | inconclusive: 39.8%

Continuation.

Row | Structure (SMILES) | inhibition
70 | O=C(O)c1ccccc1Nc1ccccc1C(=O)O | inactive: 5.44%
71 | COc1ccc(-c2nn(CCC#N)cc2C=C(C#N)C#N)cc1 | inconclusive: 54.5%
72 | COc1ccc2c(c1)c1ncn(CCN3CCNCC3)c(=O)c1n2C | inconclusive: 44.7%
73 | Cc1cccc(NCc2ccccc2O)c1C | inconclusive: 28.9%
74 | Nc1nc2ccccc2n1/N=C/c1ccc(Br)cc1 | inconclusive: 44.3%
75 | C=CCn1c(SCc2c(C)noc2C)nc2sc3c(c2c1=O)CCCC3 | inconclusive: 47.7%
76 | COc1ccc(-c2c3c(=O)n(C)c(=O)n(C)c3cn2-c2ccc(O)cc2)cc1 | inconclusive: 35.7%
77 | CC1(C)c2ccccc2N2CC(=O)NC21/C=C/c1ccco1 (centres undefined) | inconclusive: 41.1%
78 | CC[N+](CC)(CC)CCCCOc1ccc2c(c1)C(=O)c1cc(OCCCC[N+](CC)(CC)CC)ccc1-2 | inconclusive: 57%
79 | Cc1noc(C)c1S(=O)(=O)N(C)Cc1ccccc1 | inconclusive: 38.2%
80 | O=c1cc(CN2CCN(S(=O)(=O)c3ccc4ccccc4c3)CC2)nc2sccn12 | inconclusive: 40.7%
81 | COc1ccc(OC)c(S(=O)(=O)N(C)CC(=O)Nc2cc(Cl)ccc2OC)c1 | inconclusive: 49.5%
82 | O=C(CCCCn1c(=O)[nH]c2ccccc2c1=O)N1CCN(c2cccc(C(F)(F)F)c2)CC1 | inconclusive: 40.5%
83 | CCN1CC2([N+](=O)[O-])C=CC(=O)C([N+](=O)[O-])(C1)C2CC(=O)c1ccccc1 (centres undefined) | inconclusive: 35.9%
84 | O=C1CC(/C=C/c2ccccc2)(C(=O)NC2CCCC2)N1c1ccc(S(=O)(=O)N2CCCC2)cc1 (centres undefined) | inconclusive: 46.2%
85 | CCCCC1=CC2=CC(=O)C(C)(OC(=O)CC)C(=O)C2=CN1CCc1ccccn1 (centres undefined) | inactive: 21.2%
86 | Cn1cnc2cc(NC(=O)c3ccco3)ccc21 | inconclusive: 57.6%
87 | C/C(=N\Nc1nc2c(s1)CCCC2)c1ccccc1 | inconclusive: 39.6%
88 | CC1(OC(=O)C2CCCC2)C(=O)C=C2C=C(c3ccsc3)N(C3CC3)C=C2C1=O (centres undefined) | inconclusive: 46.5%
89 | COc1ccc(/C=N/NC(=O)c2cccc([N+](=O)[O-])c2)cc1OS(=O)(=O)c1ccccc1 | inactive: 2.68%
